Test results as given in article doi:10.1101/2025.07.28.25332029.

What was measured:
CIDEA (human) = target: T1, CIDEA (human) (UniProt O60543); assay: co-IP
T1 sequence: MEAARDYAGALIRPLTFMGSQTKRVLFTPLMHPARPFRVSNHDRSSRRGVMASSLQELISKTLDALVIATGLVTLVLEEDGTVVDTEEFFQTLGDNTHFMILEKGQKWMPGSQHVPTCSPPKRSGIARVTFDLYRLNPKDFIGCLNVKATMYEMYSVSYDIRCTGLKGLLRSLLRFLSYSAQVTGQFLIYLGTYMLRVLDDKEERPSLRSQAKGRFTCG

[1] = target: T2, CIDEC short isoform (CIDEC-S) (human) (UniProt Q96AQ7); assay: co-IP
T2 sequence: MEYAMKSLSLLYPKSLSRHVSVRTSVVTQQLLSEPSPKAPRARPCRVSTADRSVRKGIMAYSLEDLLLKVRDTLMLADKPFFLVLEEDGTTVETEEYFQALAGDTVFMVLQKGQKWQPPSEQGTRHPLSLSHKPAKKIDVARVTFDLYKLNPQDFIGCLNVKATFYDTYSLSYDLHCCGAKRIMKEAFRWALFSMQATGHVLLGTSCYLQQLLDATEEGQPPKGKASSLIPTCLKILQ

binding (CIDEA (human)): binds
binding [1]: binds
Substance: CIDEC long isoform (CIDEC-L), wild type (from UniProt A0A0A0MRY9)

Results are given in words; binding and its absence hold for the method and conditions named. In cells and extracts the contact can be indirect. Binding calls can cover weak binding; strength is not graded here.
